In the supplement of paper PMC5355238:
Counter-ions that a name gives are not always drawn. The list shows a part of the results. Most entries show no effect beyond the scatter of the controls.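 Using flow cytometry, the assay measures the median γH2AX antibody signal in S-phase Reh cells (a human leukemia line). Each score is the number of standard deviations from the median difference of paired plate sets. Candidate hits scored above 2.5; compounds scoring below -2 lowered MK1775-induced damage.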

test system: Reh; experiment: Z' of S-phase gammaH2AX difference (drug + MK1775 minus drug alone) (Z-score); higher = stronger synergistic S-phase DNA damage with MK1775; conditions: MK1775 concentration 400 nM; first compound 10 µM; 4 h

Compound | Z' of S-phase gammaH2AX difference (Z-score)
COc1ccc2c(c1)c(CC(=O)O)c(C)n2Cc1ccc(F)cc1 [1-(4-Fluorobenzyl)-5-methoxy-2-methylindole-3-acetic acid] + C=CCn1c(=O)c2cnc(Nc3ccc(N4CCN(C)CC4)cc3)nc2n1-c1cccc(C(C)(C)O)n1 [MK1775] | inactive: 0.935
Cc1ccc(-c2cc(C(F)(F)F)nn2-c2ccc(S(N)(=O)=O)cc2)cc1 [Celecoxib] + C=CCn1c(=O)c2cnc(Nc3ccc(N4CCN(C)CC4)cc3)nc2n1-c1cccc(C(C)(C)O)n1 [MK1775] | inactive: 0.6
CC(C)[N+]1(C)[C@@H]2CC[C@H]1C[C@@H](OC(=O)C(CO)c1ccccc1)C2 (some centres not stated) [Ipratropium bromide] + C=CCn1c(=O)c2cnc(Nc3ccc(N4CCN(C)CC4)cc3)nc2n1-c1cccc(C(C)(C)O)n1 [MK1775] | inactive: 2.31
CNC(=O)[C@@H](NC(=O)[C@H](CC(C)C)[C@H](O)C(=O)NO)C(C)(C)C [Marimastat] + C=CCn1c(=O)c2cnc(Nc3ccc(N4CCN(C)CC4)cc3)nc2n1-c1cccc(C(C)(C)O)n1 [MK1775] | inactive: 0.2
C[C@]12CC[C@@H]3c4ccc(O)cc4C[C@@H](CCCCCCCCC[S+]([O-])CCCC(F)(F)C(F)(F)F)[C@H]3[C@@H]1CC[C@@H]2O (some centres not stated) + C=CCn1c(=O)c2cnc(Nc3ccc(N4CCN(C)CC4)cc3)nc2n1-c1cccc(C(C)(C)O)n1 [MK1775] | inactive: -0.0732
CO/N=C(\C(=O)N[C@@H]1C(=O)N2C(C(=O)O)=C(COC(C)=O)CS[C@H]12)c1csc(N)n1 [Cefotaxime sodium] + C=CCn1c(=O)c2cnc(Nc3ccc(N4CCN(C)CC4)cc3)nc2n1-c1cccc(C(C)(C)O)n1 [MK1775] | inactive: 0.307
NC1CCN(O)C1=O (configuration not stated) + C=CCn1c(=O)c2cnc(Nc3ccc(N4CCN(C)CC4)cc3)nc2n1-c1cccc(C(C)(C)O)n1 [MK1775] | inactive: -0.317
NC(N)=N[C@@H](CCC(=O)O)C(=O)O [alpha-Guanidinoglutaric acid] + C=CCn1c(=O)c2cnc(Nc3ccc(N4CCN(C)CC4)cc3)nc2n1-c1cccc(C(C)(C)O)n1 [MK1775] | inactive: 0.561
Cc1cc(Nc2cc(N3CCN(C)CC3)nc(Sc3ccc(NC(=O)C4CC4)cc3)n2)n[nH]1 [VX-680 (MK-0457, Tozasertib)] + C=CCn1c(=O)c2cnc(Nc3ccc(N4CCN(C)CC4)cc3)nc2n1-c1cccc(C(C)(C)O)n1 [MK1775] | inactive: 0.211
CC(=O)Nc1nnc(S(N)(=O)=O)s1 [Acetazolamide] + C=CCn1c(=O)c2cnc(Nc3ccc(N4CCN(C)CC4)cc3)nc2n1-c1cccc(C(C)(C)O)n1 [MK1775] | inactive: 0.0234
Nc1nc(OCc2cc(Br)cs2)c2[nH]cnc2n1 [Lomeguatrib] + C=CCn1c(=O)c2cnc(Nc3ccc(N4CCN(C)CC4)cc3)nc2n1-c1cccc(C(C)(C)O)n1 [MK1775] | inactive: 0.199
O=C(O)CCC(C(=O)O)N1C(=O)c2ccccc2C1=O [L-Glutamic acid, N-phthaloyl-] + C=CCn1c(=O)c2cnc(Nc3ccc(N4CCN(C)CC4)cc3)nc2n1-c1cccc(C(C)(C)O)n1 [MK1775] | inactive: -0.592
NC[C@@H]1O[C@H](C23CC4CC(CC(C4)C2)C3)Cc2c1ccc(O)c2O + C=CCn1c(=O)c2cnc(Nc3ccc(N4CCN(C)CC4)cc3)nc2n1-c1cccc(C(C)(C)O)n1 [MK1775] | inactive: 0.0635
CC1CCN(CC[C@H]2CCCN2S(=O)(=O)c2cccc(O)c2)CC1 + C=CCn1c(=O)c2cnc(Nc3ccc(N4CCN(C)CC4)cc3)nc2n1-c1cccc(C(C)(C)O)n1 [MK1775] | inactive: 0.349
COc1cc(Nc2c(C#N)cnc3cc(OCCCN4CCN(C)CC4)c(OC)cc23)c(Cl)cc1Cl [Bosutinib (SKI-606)] + C=CCn1c(=O)c2cnc(Nc3ccc(N4CCN(C)CC4)cc3)nc2n1-c1cccc(C(C)(C)O)n1 [MK1775] | inactive: 0.502
CCC1(c2ccccc2)C(=O)NCNC1=O [Primidone] + C=CCn1c(=O)c2cnc(Nc3ccc(N4CCN(C)CC4)cc3)nc2n1-c1cccc(C(C)(C)O)n1 [MK1775] | inactive: -0.301
O=C(O)/C=C/C(O)c1ccc(Cl)cc1 (configuration not stated) + C=CCn1c(=O)c2cnc(Nc3ccc(N4CCN(C)CC4)cc3)nc2n1-c1cccc(C(C)(C)O)n1 [MK1775] | inactive: 1.14
C[C@]12CCC(=O)C=C1CC[C@@H]1[C@@H]2CC[C@@]2(C)[C@H]1CC[C@]2(O)C(=O)CO [Cortexolone] + C=CCn1c(=O)c2cnc(Nc3ccc(N4CCN(C)CC4)cc3)nc2n1-c1cccc(C(C)(C)O)n1 [MK1775] | inactive: 0.0631
COc1cc2ncnc(Nc3cccc(Br)c3)c2cc1OC + C=CCn1c(=O)c2cnc(Nc3ccc(N4CCN(C)CC4)cc3)nc2n1-c1cccc(C(C)(C)O)n1 [MK1775] | inactive: 0.264

Compound | Z' of S-phase gammaH2AX difference (Z-score)
CN(C)CCC(c1ccc(Br)cc1)c1ccccn1 (configuration not stated) [(?)-Brompheniramine maleate] + C=CCn1c(=O)c2cnc(Nc3ccc(N4CCN(C)CC4)cc3)nc2n1-c1cccc(C(C)(C)O)n1 [MK1775] | inactive: -0.651
COc1ccccc1N1CCN(CCCNc2c(C)c(=O)n(C)c(=O)n2C)CC1 [Urapidil, 5-Methyl-] + C=CCn1c(=O)c2cnc(Nc3ccc(N4CCN(C)CC4)cc3)nc2n1-c1cccc(C(C)(C)O)n1 [MK1775] | inactive: -1.64
CC(C)NCC(O)COc1ccc(CC(N)=O)cc1 (configuration not stated) [(?)-Atenolol] + C=CCn1c(=O)c2cnc(Nc3ccc(N4CCN(C)CC4)cc3)nc2n1-c1cccc(C(C)(C)O)n1 [MK1775] | inactive: -0.548
Cc1ccc([C@@H]2O[C@H](CO)[C@@H](O)[C@H](O)[C@H]2O)cc1Cc1ccc(-c2ccc(F)cc2)s1 [Canagliflozin] + C=CCn1c(=O)c2cnc(Nc3ccc(N4CCN(C)CC4)cc3)nc2n1-c1cccc(C(C)(C)O)n1 [MK1775] | inactive: -0.178
CN1CCN(CC(=O)N2c3ccccc3C(=O)Nc3cccnc32)CC1 [Pirenzepine dihydrochloride] + C=CCn1c(=O)c2cnc(Nc3ccc(N4CCN(C)CC4)cc3)nc2n1-c1cccc(C(C)(C)O)n1 [MK1775] | inactive: 0.621
Oc1cc2c(cc1O)C(c1ccccc1)CNCC2 (configuration not stated) + C=CCn1c(=O)c2cnc(Nc3ccc(N4CCN(C)CC4)cc3)nc2n1-c1cccc(C(C)(C)O)n1 [MK1775] | inactive: 0.712
Cc1cnc(Nc2ccc(OCCN3CCCC3)cc2)nc1Nc1cccc(S(=O)(=O)NC(C)(C)C)c1 + C=CCn1c(=O)c2cnc(Nc3ccc(N4CCN(C)CC4)cc3)nc2n1-c1cccc(C(C)(C)O)n1 [MK1775] | inactive: -0.725
CCCNC(=O)NS(=O)(=O)c1ccc(Cl)cc1 [Chlorpropamide] + C=CCn1c(=O)c2cnc(Nc3ccc(N4CCN(C)CC4)cc3)nc2n1-c1cccc(C(C)(C)O)n1 [MK1775] | inactive: -0.167
N=C(N)NCCCCNC(=N)N [Arcaine sulfate] + C=CCn1c(=O)c2cnc(Nc3ccc(N4CCN(C)CC4)cc3)nc2n1-c1cccc(C(C)(C)O)n1 [MK1775] | inactive: 0.227
Clc1cccc(Cl)c1NC1=NCCN1 [Clonidine hydrochloride] + C=CCn1c(=O)c2cnc(Nc3ccc(N4CCN(C)CC4)cc3)nc2n1-c1cccc(C(C)(C)O)n1 [MK1775] | inactive: 0.494
CN(C)S(=O)(=O)c1ccc2c(c1)/C(=C/c1cc3c([nH]1)CCCC3)C(=O)N2 + C=CCn1c(=O)c2cnc(Nc3ccc(N4CCN(C)CC4)cc3)nc2n1-c1cccc(C(C)(C)O)n1 [MK1775] | inactive: -0.378
Cc1csc(-c2nnc(Nc3ccc(Oc4ncccc4-c4ccnc(N)n4)cc3)c3ccccc23)c1 + C=CCn1c(=O)c2cnc(Nc3ccc(N4CCN(C)CC4)cc3)nc2n1-c1cccc(C(C)(C)O)n1 [MK1775] | inactive: -0.654
Nc1nc2c(ncn2COC(CO)CO)c(=O)[nH]1 [Ganciclovir] + C=CCn1c(=O)c2cnc(Nc3ccc(N4CCN(C)CC4)cc3)nc2n1-c1cccc(C(C)(C)O)n1 [MK1775] | inactive: 0.687
c1ccc2c(CCNc3ccc(Nc4ccncc4)cc3)c[nH]c2c1 + C=CCn1c(=O)c2cnc(Nc3ccc(N4CCN(C)CC4)cc3)nc2n1-c1cccc(C(C)(C)O)n1 [MK1775] | inactive: 0.653
COc1c(C)cnc(Cn2cnc3c(Cl)nc(N)nc32)c1C + C=CCn1c(=O)c2cnc(Nc3ccc(N4CCN(C)CC4)cc3)nc2n1-c1cccc(C(C)(C)O)n1 [MK1775] | inactive: -0.191
Nc1nccc(Oc2ccc(NC(=O)c3c[nH]cc(-c4ccc(F)cc4)c3=O)cc2F)c1Cl + C=CCn1c(=O)c2cnc(Nc3ccc(N4CCN(C)CC4)cc3)nc2n1-c1cccc(C(C)(C)O)n1 [MK1775] | inactive: 0.623
NC(=O)Nc1cc(-c2cccc(F)c2)sc1C(=O)N[C@H]1CCCNC1 + C=CCn1c(=O)c2cnc(Nc3ccc(N4CCN(C)CC4)cc3)nc2n1-c1cccc(C(C)(C)O)n1 [MK1775] | active: 3.53
O=C(c1ccc(F)cc1)C1CCN(CCn2c(=O)[nH]c3ccccc3c2=O)CC1 [Ketanserin tartrate] + C=CCn1c(=O)c2cnc(Nc3ccc(N4CCN(C)CC4)cc3)nc2n1-c1cccc(C(C)(C)O)n1 [MK1775] | inactive: -1.51

An excerpt of these results, with tabs:
Compound	Z' of S-phase gammaH2AX difference (Z-score)
O=C(O)CCC(C(=O)O)N1C(=O)c2ccccc2C1=O [L-Glutamic acid, N-phthaloyl-] + C=CCn1c(=O)c2cnc(Nc3ccc(N4CCN(C)CC4)cc3)nc2n1-c1cccc(C(C)(C)O)n1 [MK1775]	inactive: -0.592
NC[C@@H]1O[C@H](C23CC4CC(CC(C4)C2)C3)Cc2c1ccc(O)c2O + C=CCn1c(=O)c2cnc(Nc3ccc(N4CCN(C)CC4)cc3)nc2n1-c1cccc(C(C)(C)O)n1 [MK1775]	inactive: 0.0635
CC1CCN(CC[C@H]2CCCN2S(=O)(=O)c2cccc(O)c2)CC1 + C=CCn1c(=O)c2cnc(Nc3ccc(N4CCN(C)CC4)cc3)nc2n1-c1cccc(C(C)(C)O)n1 [MK1775]	inactive: 0.349
